The other results are listed elsewhere or left out.

Sequences of proteins named here, by UniProt entry; tags and fusion partners are left off.
UniProt Q0JBA9, entry or part of it: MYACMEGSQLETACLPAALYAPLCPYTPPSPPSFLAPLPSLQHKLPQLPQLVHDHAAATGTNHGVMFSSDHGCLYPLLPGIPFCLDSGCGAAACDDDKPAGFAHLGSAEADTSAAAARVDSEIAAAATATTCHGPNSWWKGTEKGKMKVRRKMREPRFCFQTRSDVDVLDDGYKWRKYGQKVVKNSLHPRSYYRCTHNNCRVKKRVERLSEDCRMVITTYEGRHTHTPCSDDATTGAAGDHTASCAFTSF

This test concerns the target OsWRKY34 (Oryza sativa, UniProt Q0JBA9 1-250). Nature of the test: protein-binding microarray (RPBM); PBS, 2% BSA, 51.3 ng/ul salmon testes DNA, 50 uM zinc acetate, 200 nM TF, 25 C, 1 h; high values mean tight binding. The conditions noted are these: protein: recombinant; tags: N-terminal polyhistidine and DsRed monomer fusion (pET32a); label: CyDye5-dUTP incorporated in the synthesized complementary strand; 3' TTTTT single-stranded linker to array surface; dsDNA, one strand shown. Summed up: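 For the binding signal, per-feature fluorescence intensity was read in arbitrary units on an Axon 4000B scanner. Before scanning, a 2% BSA-blocked custom Agilent array made double-stranded with Cy5-dUTP was washed after 1 h at 25 °C with 200 nM protein and 50 µM zinc acetate. The proteins were Ni–NTA-purified transcription factors with N-terminal polyhistidine and DsRed fusions, expressed in E. coli BL21-CodonPlus.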
In the case of “TTTATAAGAAACGGCCGTGTTTGGTGGTGGGTGTTGGGAACGGAGTCACCTAGTGCAG”, the binding signal was 11900 fluorescence intensity (a.u.).
Take “TCACCAAACACCTCGATCCATCCCTCTACCCTTCAAGAAACGGAGTCACCTAGTGCAG”: the binding signal was 9270 fluorescence intensity (a.u.).
As for “GAACATGCTCACTAGGAATATTTGCTTATCTTCTTAAAACCGGAGTCACCTAGTGCAG”, the figure is 8100 fluorescence intensity (a.u.); as for “CCTCGAAAAGAGAAGGTGGAGGGGATGGGGTGAATTTAAACGGAGTCACCTAGTGCAG”, 11700 fluorescence intensity (a.u.).
Under “GAACTAAACATGGCCTTACTAACCATTGACGTCACGATTCCGGAGTCACCTAGTGCAG” stands 8260 fluorescence intensity (a.u.); under “CCTTGCGCGCACCACGCCACCACCTCCACCTCCACTTCGCCGGAGTCACCTAGTGCAG”, 11400 fluorescence intensity (a.u.).
As for “TCCGCGCCTCGCCTCGCCACCCGCATCGCCATCTCGCACCCGGAGTCACCTAGTGCAG”, the figure is 8520 fluorescence intensity (a.u.); as for “CCTCGCGTTTTGTGTCGTTCCGAGGCAACGTCGACGGTCGCGGAGTCACCTAGTGCAG”, 8280 fluorescence intensity (a.u.); as for “GGCGTATTTGCTCATTTGCTCTCTCTCTTCCTCTCCTCTCCGGAGTCACCTAGTGCAG”, 8550 fluorescence intensity (a.u.).
Take “ATCCGCTTCTGGAAGTCTCGAGGCCTCTCTCTCTCTCTCTCGGAGTCACCTAGTGCAG”: the binding signal is 8580 fluorescence intensity (a.u.).
Under “CACTGTCGTTATTTGCTTTAGCCCAACCTGTCACTGTTGTCGGAGTCACCTAGTGCAG” stands 11100 fluorescence intensity (a.u.); under “GGAGACGGCGTGGCGAGGAGGCGGGATGGGGAGGCGGCGCCGGAGTCACCTAGTGCAG”, 10100 fluorescence intensity (a.u.).
Under “TTCCTTATTTCGTATAAACTATCTCCTAATTAATAAGAAGCGGAGTCACCTAGTGCAG” stands 8110 fluorescence intensity (a.u.).
As for “GGCGTTCACTTCACCGTGGGATCGAATCATCCAAAAACATCGGAGTCACCTAGTGCAG”, the figure is 8150 fluorescence intensity (a.u.); as for “AACTACTCTCTCCGTCCGATAGAACTCAACTGGACACACACGGAGTCACCTAGTGCAG”, 8130 fluorescence intensity (a.u.); as for “GCCACCACCGCCAATCGCCACCGCCTCACCACGCTGACCCCGGAGTCACCTAGTGCAG”, 11000 fluorescence intensity (a.u.).
Turning to “TACACTCCATGTTTTGGCTGTTTTGACTTTCGCATGATCACGGAGTCACCTAGTGCAG”, the binding signal was 9370 fluorescence intensity (a.u.).
For “ATCCACAACCATCCATCTCCATTCGCCATTTCCGCCCACTCGGAGTCACCTAGTGCAG”, the binding signal was 11600 fluorescence intensity (a.u.).
Under “ACGTTTTGCCCCTGGAGGGCATTTCCTTTTGATTAAATTACGGAGTCACCTAGTGCAG” stands 8480 fluorescence intensity (a.u.).
As for “ATTGCAACCATTCATCTCTTTTAGCCCTCTAAAAAAAATACGGAGTCACCTAGTGCAG”, the figure is 8640 fluorescence intensity (a.u.); as for “CGCTGGGACTTCTCTGCTATCTTTTCCTGTGTCTACATTTCGGAGTCACCTAGTGCAG”, 8700 fluorescence intensity (a.u.); as for “TTCACGGTTGAATATCTGTTTACTTATCTTTTTACTTATACGGAGTCACCTAGTGCAG”, 8620 fluorescence intensity (a.u.).
With “GTGGTGGAGGAGGAGGAGGAGGATGAGGAGGAAGCGGCTGCGGAGTCACCTAGTGCAG”, the binding signal is 8570 fluorescence intensity (a.u.).
On to “CATCCTCGCCGTCATTTTGCGCCGCCTCTTGGACACCCGCCGGAGTCACCTAGTGCAG”, for which the binding signal was 9250 fluorescence intensity (a.u.).
Under “GCTCTCTTTGACTTTATCAGAGTTCCCGTAGTATCTAAACCGGAGTCACCTAGTGCAG” stands 8830 fluorescence intensity (a.u.); under “GTACGCAACTTGTCCGCAGCCGCGACCCCGACCCGACCCGCGGAGTCACCTAGTGCAG”, 8200 fluorescence intensity (a.u.); under “CTCCTCCTCCGGCCACGTCGACGTCGCACCAACCGCCGCCCGGAGTCACCTAGTGCAG”, 8480 fluorescence intensity (a.u.).
As for “GATCTAGCCTTATCCTCCTTCGTCGCCTCCGGATTGGTTTCGGAGTCACCTAGTGCAG”, the figure is 8550 fluorescence intensity (a.u.); as for “CCCGTCTCTTTCACGACCCACTCCGCCTCGCCTCCACTCCCGGAGTCACCTAGTGCAG”, 8390 fluorescence intensity (a.u.); as for “GATTCCCGCCATCTCTATCCTCCTACTCGTCGCTGTCATCCGGAGTCACCTAGTGCAG”, 10200 fluorescence intensity (a.u.).
As for “GCTTCTATATCCGTGATTGTTAACACTATTATATTGTTATCGGAGTCACCTAGTGCAG”, the figure is 11700 fluorescence intensity (a.u.).
For the sequence “TTTGCATTCTACTATGTCTGGCAGCATCTGCTGTAGTTGGCGGAGTCACCTAGTGCAG”, the binding signal was 8990 fluorescence intensity (a.u.).
As for “TTGTGGGGCCCGCTTTTGTCCTGATTTTTCTCGTTCTTTCCGGAGTCACCTAGTGCAG”, the figure is 11300 fluorescence intensity (a.u.); as for “GCGTCTCCATTGGTTGAGGAGTGCCACACCCTGATTTTTCCGGAGTCACCTAGTGCAG”, 8080 fluorescence intensity (a.u.).
In the case of “GTGGAGGGGAGGGGCTGCTGATGGGCTTTGGCCTAGAGCTCGGAGTCACCTAGTGCAG”, the binding signal is 14000 fluorescence intensity (a.u.).
As for “CTCCAATCGGTTTTAGATTACTTTGTTAACTTTTGACCTACGGAGTCACCTAGTGCAG”, the figure is 8350 fluorescence intensity (a.u.); as for “CAATGGGGTTTTGACTGTCAGCTGCATTCGCACCCTTGCACGGAGTCACCTAGTGCAG”, 9480 fluorescence intensity (a.u.); as for “GTGCTTCCCAGCCTTCACTGTATGTCTGTATCGTTTTTCACGGAGTCACCTAGTGCAG”, 15000 fluorescence intensity (a.u.).
For “GTGATTGGATGGGTAGTGGAGACAGGTGGGAAAAATGAATCGGAGTCACCTAGTGCAG”, the binding signal is 8510 fluorescence intensity (a.u.).
As for “CCTCGCCCACTCAACAGCCGCCGCCTCTCGGCTGCACAGCCGGAGTCACCTAGTGCAG”, the figure is 11200 fluorescence intensity (a.u.).
As for “AAAAGCCATCACTGCTCTGCTAGCATCATTGTAGTACCAGCGGAGTCACCTAGTGCAG”, the figure is 8290 fluorescence intensity (a.u.); as for “AGGAGGGGTTGTTTGTCTCTAATCGCTCTCGTTCCCCATTCGGAGTCACCTAGTGCAG”, 9620 fluorescence intensity (a.u.).

Values taken from paper PMC7819943, “Rice protein-binding microarrays: a tool to detect cis-acting elements near promoter regions in rice”.
